Data as given in paper PMC10144829.
These are yes or no findings as the source states them, for the method shown. Binding seen in cells or lysates may run through a third protein.

The chains behind the UniProt entries cited, without tags or fusion partners.
UniProt P04406: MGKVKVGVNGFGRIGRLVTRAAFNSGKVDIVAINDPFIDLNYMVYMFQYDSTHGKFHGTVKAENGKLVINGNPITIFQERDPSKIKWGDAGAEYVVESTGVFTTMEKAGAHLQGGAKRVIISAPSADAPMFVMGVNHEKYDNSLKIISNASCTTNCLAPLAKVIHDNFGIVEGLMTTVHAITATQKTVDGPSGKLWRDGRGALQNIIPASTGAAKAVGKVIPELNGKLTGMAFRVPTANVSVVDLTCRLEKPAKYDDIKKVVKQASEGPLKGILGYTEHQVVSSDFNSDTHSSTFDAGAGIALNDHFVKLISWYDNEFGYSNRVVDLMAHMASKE

Biological target: GAPDH (human (endogenous in RD)) (UniProt P04406)
Test: co-IP

| Binder | binding |
| --- | --- |
| human scavenger receptor class B, member 2 (hSCARB2) (receptor, UniProt Q14108 1-478) MGRCCFYTAGTLSLLLLVTSVTLLVARVFQKAVDQSIEKKIVLRNGTEAFDSWEKPPLPVYTQFYFFNVTNPEEILRGETPRVEEVGPYTYRELRNKANIQFGDNGTTISAVSNKAYVFERDQSVGDPKIDLIRTLNIPVLTVIEWSQVHFLREIIEAMLKAYQQKLFVTHTVDELLWGYKDEILSLIHVFRPDISPYFGLFYEKNGTNDGDYVFLTGEDSYLNFTKIVEWNGKTSLDWWITDKCNMINGTDGDSFHPLITKDEVLYVFPSDFCRSVYITFSDYESVQGLPAFRYKVPAEILANTSDNAGFCIPEGNCLGSGVLNVSICKNGAPIIMSFPHFYQADERFVSAIEGMHPNQEDHETFVDINPLTGIILKAAKRFQINIYVKKLDDFVETGDIRTMVFPVMYLNESVHIDKETASRLKSMINTTLIITNIPYIIMALGVFFGLVFTWLACKGQGSMDEGTADERAPLIRT | no binding |
| KREMEN1 (KRM1) (receptor, UniProt Q96MU8 20-473) ARPAPSPGLGPECFTANGADYRGTQNWTALQGGKPCLFWNETFQHPYNTLKYPNGEGGLGEHNYCRNPDGDVSPWCYVAEHEDGVYWKYCEIPACQMPGNLGCYKDHGNPPPLTGTSKTSNKLTIQTCISFCRSQRFKFAGMESGYACFCGNNPDYWKYGEAASTECNSVCFGDHTQPCGGDGRIILFDTLVGACGGNYSAMSSVVYSPDFPDTYATGRVCYWTIRVPGASHIHFSFPLFDIRDSADMVELLDGYTHRVLARFHGRSRPPLSFNVSLDFVILYFFSDRINQAQGFAVLYQAVKEELPQERPAVNQTVAEVITEQANLSVSAARSSKVLYVITTSPSHPPQTVPGSNSWAPPMGAGSHRVEGWTVYGLATLLILTVTAIVAKILLHVTFKSHRVPASGDLRDCHQPGTSGEIWSIFYKPSTSISIFKKKLKGQSQQDDRNPLVSD | no binding |
